In paper PMC4574919, “Structural and Biochemical Analysis of a Single Amino-Acid Mutant of WzzBSF That Alters Lipopolysaccharide O-Antigen Chain Length in Shigella flexneri” (PLoS ONE, 2015):
These are yes or no findings as the source states them, for the method shown. Binding seen in cells or lysates may run through a third protein. Some entries that bind do so weakly or less than the wild type.

Target: full-length WzzBSF (Shigella flexneri) (UniProt P37792)
Assay: cross-linking; whole S. flexneri cells, 0.5% formaldehyde, 25°C, 1 h, 10 mM potassium phosphate/10 mM Tris pH 6.8; samples heated at 60°C, SDS-PAGE, immunoblot with anti-WzzBSF

B1: full-length WzzBSF (natural protein)
chain: MRVENNNVSGQNHDPEQIDLIDLLVQLWRGKMTIIISVIVAIALAIGYLAVAKEKWTSTAIITQPDVGQIAGYNNAMNVIYGQAAPKVSDLQETLIGRFSSAFSALAETLDNQEEPEKLTIEPSVKNQQLPLTVSYVGQTAEGAQMKLAQYIQQVDDKVNQELEKDLKDNIALGRKNLQDSLRTQEVVAQEQKDLRIRQIQEALQYANQAQVTKPQVQQTEDVTQDTLFLLGSEALESMIKHEATRPLVFSPNYYQTRQNLLDIEKLKFDDLDIHAYRYVMKPTLPIRRDSPKKAITLILAVLLGGMVGAGIVLGRNALRNYNAK
notes: WzzBSF of Shigella flexneri, wzzSF open reading frame in pRMCD30; ~36 kDa; also called wild-type WzzBSF; source: S. flexneri RMA4053 (wzz::kan), from plasmid pRMCD30 (pQE30-based), IPTG-induced, in whole cells
In the case of B1, the binding is reported as “binds”.
